This is one part of the list. Further columns of the screen follow, without active or inactive calls. Most of these compounds were active or inconclusive in the main read-out, so they are no random draw. The note in brackets gives the kind of curve behind each potency; many fits are weak.
Assay: qHTS Assay for Lipid Storage Modulators in Drosophila S3 Cells;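 on cell number change: cells counted by Cell Tracker Red CMTPX staining in the red channel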
Conditions: BODIPY lipid droplet fluorescence, 18-24 h; for cell number change: measured here: cell count max response, cells fed with added oleic acid
In short: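 Drosophila S3 cells got compounds at several concentrations plus oleic acid (400 uM solution). Laser-scanning cytometry with 488 nm excitation read lipid droplets at 500-530 nm and cells at 575-640 nm. Percent activity was relative to 20 uM Triacsin C.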

[1] = measured here: cell number channel AC50, cells fed with added oleic acid
[2] = measured here: lipid fluorescence (Fed channel) AC50, cells fed with added oleic acid

Compound | cell number change | AC50 [1] | AC50 [2]
CC(=O)C(C)n1c(CN(C)Cc2ccccc2)nc2c1c(=O)n(C)c(=O)n2C (stereo not drawn) | -34.6% | 16.4 µM [falling, single point] | 
CCOc1ccc(CSCCNC(=S)Nc2ccccc2)cc1 | -15.2% |  | 16.4 µM [falling, single point]
C#CCOCCOCCOCCNc1nc(N2CCN(C(=O)[C@H](CCCCN)n3cc(CCC(=O)O)nn3)CC2)nc(N2CCN(C(=O)[C@H](CCCCN)n3cc(CC(C)O)nn3)CC2)n1 (stereo partly drawn) | -4.7% |  | 6.51 µM [rising, single point]
C#CCN1C(=O)S/C(=C\c2cc3c(cc2OC)OCO3)C1=O | -6.3% | 0.146 µM [rising, full curve, poor fit] | 29.1 µM [falling, single point]
CCC1CCCCN1CCCNC(=O)CNC(=O)c1nn(-c2ccc(OC)cc2)c(=O)c2ccccc12 (stereo not drawn) | 6.76% |  | 6.51 µM [falling, partial curve, poor fit]
Cc1ccc(-n2cc(CN3CCC(CO)(Cc4cccc(C(F)(F)F)c4)CC3)cn2)cc1 | -41.6% | 20.6 µM [falling, single point] | 29.1 µM [falling, single point]
N#C/C(=C\c1ccc([N+](=O)[O-])o1)C(=O)Nc1ccc(F)cc1 | 63.1% | 32.6 µM [rising, partial curve] | 
COc1ccc(-c2cn[nH]c2-c2ccc(OCC(=O)NN)cc2O)cc1 | 22.5% | 6.51 µM [rising, single point] | 
COc1ccc(CC(=O)OCC(=O)Nc2ccc(Cl)cn2)cc1 |  | 0.731 µM [rising, single point] | 
COCCCNC(=O)C(C)N1c2cccc3cccc(c23)S1(=O)=O (stereo not drawn) |  |  | 25.9 µM [rising, single point]
Cc1ccc(C2Nc3cccc4cccc(c34)N2)cc1 | 9.12% |  | 29.1 µM [rising, single point]
Cc1cc(CC(C)C)n(-c2nc3ccccc3c(=O)n2OCC(=O)N(C)C)n1 | -5.54% |  | 
CCc1ccccc1NC(=O)C1CCCN1S(=O)(=O)c1ccc(-c2ccc(=O)[nH]n2)s1 (stereo not drawn) |  |  | 0.58 µM [rising, single point]
O=C(COc1cccc2cccnc12)Nc1cccc(S(=O)(=O)N2CCCC2)c1 | -32.5% | 41.1 µM [falling, partial curve, poor fit] | 0.206 µM [rising, full curve, poor fit]
Nc1nnc(CC(=O)N/N=C/c2ccc(-c3ccc(Cl)cc3Cl)o2)s1 | 10% |  | 3.66 µM [rising, single point]
O=C1C(=O)N(c2ccc(O)cc2)C(c2ccccc2[N+](=O)[O-])/C1=C(\O)c1ccccc1 (stereo not drawn) | -15.8% |  | 7.31 µM [falling, partial curve, poor fit]
C=CCn1c(=NC(=O)c2ccccc2[N+](=O)[O-])sc2cc(S(C)(=O)=O)ccc21 | 0.215% |  | 1.16 µM [rising, partial curve, poor fit]
O=C(N/N=C/c1ccccc1F)C(=O)N1CCCCCC1 | 36.5% | 29.1 µM [rising, single point] | 
CC1CCN(C(=O)c2[nH]cnc2C(=O)N[C@@H](Cc2ccccc2)C(=O)OC(C)(C)C)CC1 | 13.2% |  | 
Cc1ccc(CCNC(=O)C2CCCN(S(=O)(=O)c3cccc4nsnc34)C2)cc1 (stereo not drawn) | 2.14% |  | 0.58 µM [rising, single point]

Compound | cell number change | AC50 [1] | AC50 [2]
CC1CCN(S(=O)(=O)c2ccc3c(ccn3CC(=O)O)c2)CC1 | 15% |  | 
Clc1ccc(/C=N/NC(=Nc2ccccc2)c2ccccn2)c(Cl)c1 | -10.3% |  | 29.1 µM [falling, single point]
C=CCn1c(=N)n(CC(=O)c2ccc(Cl)cc2)c2ccccc21 |  |  | 29.1 µM [rising, single point]
CCCNC(=O)c1onc(CSc2ccc(Cl)cc2)c1C(=O)NC(C)C | -0.066% |  | 0.00461 µM [falling, full curve, poor fit]
CCCCCC(=O)NNC(=O)c1ccc(-c2ccccc2)cc1 |  | 1.16 µM [rising, full curve] | 0.82 µM [rising, partial curve]
CC(C)(C)c1ccc(-n2nc(C#N)c(Cl)cc2=O)cc1 | -76.8% |  | 29.1 µM [falling, single point]
COc1ccc(NC(=O)C(=O)NCCN2CCN(C(=O)c3cccc(Br)c3)CC2)cc1 | -0.959% |  | 10 µM [rising, partial curve, poor fit]
N#Cc1ccsc1NC(=O)C1CC(=O)N(Cc2ccccc2)C1 (stereo not drawn) | -18% |  | 20.6 µM [falling, single point]
CC(OC(=O)C1=NNC(=O)CC1)C(=O)Nc1ncc(Cl)cc1Cl (stereo not drawn) | -22.4% |  | 
CCc1cc2c(NCCO)ncnc2s1 | 28.2% | 0.82 µM [rising, full curve, poor fit] | 20.6 µM [rising, partial curve, poor fit]
Cc1ccc(SCCN)cc1C | 22.7% |  | 
COc1ccc(Cn2nnnc2C(c2ccccc2)N2CCN(C3CCCC3)CC2)cc1 (stereo not drawn) | 44.5% | 5.17 µM [rising, full curve] | 
Cc1ccc(-c2nc(CS(=O)CC(=O)NCCN(CC(C)C)CC(C)C)c(C)o2)cc1 (stereo not drawn) | -106% | 29.1 µM [falling, single point] | 
COc1ccc(Nc2nc(N3CCOCC3)nc(N3CCOCC3)n2)cc1Cl | -48.1% | 16.4 µM [falling, partial curve] | 29.1 µM [falling, single point]
O=C(O)C1CCCCC1C(=O)NCCc1ccccc1 (stereo not drawn) | -7.34% |  | 0.731 µM [falling, full curve, poor fit]
CCOC(=O)Cn1c(=O)c2c(nc(Br)n2Cc2ccc(Cl)cc2)n(C)c1=O | -40.3% | 0.82 µM [falling, full curve, poor fit] | 
Cc1nc(=O)c(-c2ccccc2)c(C)n1-c1ccccc1 | -0.552% |  | 6.51 µM [falling, single point]
CCOC(CNC(=O)Cc1c(C)nc2c(-c3ccccc3)c(C)nn2c1C)OCC | 28.2% |  | 
COc1ccc(S(=O)(=O)NCCSCc2ccco2)cc1 | 14.5% |  | 6.51 µM [falling, single point]
O=C(c1ccc2ccccc2c1)N1CCCCC1 | -9.21% |  | 15.8 µM [falling, single point]

Compounds shown so far that have a nitro group on carbon (three):
Compound | cell number change | AC50 [1] | AC50 [2]
N#C/C(=C\c1ccc([N+](=O)[O-])o1)C(=O)Nc1ccc(F)cc1 | 63.1% | 32.6 µM [rising, partial curve] | 
O=C1C(=O)N(c2ccc(O)cc2)C(c2ccccc2[N+](=O)[O-])/C1=C(\O)c1ccccc1 (stereo not drawn) | -15.8% |  | 7.31 µM [falling, partial curve, poor fit]
C=CCn1c(=NC(=O)c2ccccc2[N+](=O)[O-])sc2cc(S(C)(=O)=O)ccc21 | 0.215% |  | 1.16 µM [rising, partial curve, poor fit]

Later entries.

Compound | cell number change | AC50 [1] | AC50 [2]
CCCN1C2CCCC1CC(NC(=O)c1ccc(C(C)(C)C)cc1)C2 (stereo not drawn) | -9.46% |  | 4.61 µM [falling, single point]
CCCc1cc(=O)oc2cc(OCC(=O)NCCCN3CCOCC3)ccc12 | 135% | 29.1 µM [rising, single point] | 
COc1ccc(C)cc1N(C(=O)CNC(=O)c1ccco1)C(C(=O)NC1CCCC1)c1cccnc1 (stereo not drawn) | 32.4% | 14.6 µM [rising, single point] | 4.11 µM [rising, single point]
CCOc1ccc(OCCn2ccnc2)cc1 | -4.94% |  | 0.092 µM [falling, partial curve, poor fit]
Cc1cc(C)c2nc(NNC(=O)c3ccc(S(=O)(=O)N4CCCC(C)C4)cc3)sc2c1 (stereo not drawn) | -41.2% | 20.6 µM [falling, partial curve, poor fit] | 23.1 µM [falling, partial curve]
COc1cc(/C=C2\C(=N)N3N=C(N4CCOCC4)SC3=NC2=O)ccc1OC(=O)c1ccccc1 | -33.7% | 23.1 µM [falling, single point] | 0.164 µM [falling, full curve]
Cc1ccc(CNCc2cc(Cl)ccc2O)cc1 | -34.8% | 9.2 µM [falling, partial curve] | 
Cc1ccc(C(=O)NCCSc2ccc(Cl)cc2)cc1S(=O)(=O)Nc1ccccc1 | -28.9% | 4.11 µM [falling, full curve, poor fit] | 
O=C(NCCCN1CCOCC1)c1ccc2c(c1)N(Cc1cccc(Cl)c1)C(=O)CS2 | -2.38% |  | 6.51 µM [rising, single point]
Cc1cccnc1NC(=O)CCCN1C(=O)c2ccccc2C1=O |  | 0.00461 µM [rising, full curve, poor fit] | 0.411 µM [rising, full curve]
CCN(Cc1nc2ccccc2c(=O)[nH]1)Cc1cc(=O)oc2cc(OC)ccc12 | 23.2% |  | 23.1 µM [rising, single point]
COC(=O)CN1C(=O)N/C(=C/c2ccccc2OC)C1=O | 17.5% |  | 23.1 µM [rising, single point]
CCN(CCCCOC(=O)c1ccc(OC)c(OC)c1)C(C)Cc1ccc(OC)cc1 (stereo not drawn) | 10.9% |  | 6.51 µM [falling, single point]
CN(C)c1ccc(CNS(=O)(=O)c2csc(C(N)=O)c2)cc1 | -8.96% |  | 0.206 µM [falling, full curve, poor fit]
Cc1[nH]c2ccccc2c1/C=N/NC(=S)NC(C)C | -87.4% | 0.0164 µM [falling, full curve, poor fit] | 
COc1ccc(NS(=O)(=O)c2cc3c(cc2C)N(C)CCO3)cc1 |  |  | 1.64 µM [rising, partial curve]
CSc1ncc(C(=O)Nc2cccc(Cl)c2)c(C)n1 | -22.7% |  | 0.58 µM [rising, single point]
COc1ccc(Cl)cc1NC(=S)NNC(=O)c1cccnc1 | -3.99% |  | 
COc1ccccc1N(CC(=O)NC1CCCCC1)S(=O)(=O)c1ccccc1 | -1.71% |  | 

From PubChem BioAssay AID2685 (National Center for Advancing Translational Sciences (NCATS), 2010)
